# Source: US12704458B2, “Critical angle reflection imaging for quantification of molecular interactions” (ARIZONA BOARD OF REGENTS ON BEHALF OF ARIZONA STATE …, priority 2020, dated 2026)
# At least one structure is not confirmed: it was looked up by name or label, or the drawing left a doubt.
# System: wild type SH-EP1 cells
# Assay: CAR control experiment: acetylcholine on wild type SH-EP1 cells without nAChR
# Type: binding
# Settings: wild type SH-EP1 cells (no nAChR), acetylcholine 50 nM, 100 nM and 200 nM
structure (smiles),measurement,setting,value
CC(=O)OCC[N+](C)(C)C [acetylcholine],CAR response,,negligible
same,CAR response,listed as Acetylcholine,No clear CAR response
